PubChem BioAssay AID1487 (National Center for Advancing Translational Sciences (NCATS), 2009)
This is one part of the list. Further columns of the screen follow, without active or inactive calls. Most of these compounds were active or inconclusive in the main read-out, so they are no random draw. Words in brackets tell the shape of the fitted curve; partial curves, single points and poor fits give uncertain potencies.

Assay: qHTS Assay for Modulators of Lamin A Splicing
Conditions: HeLa LMNA splicing GFP/RFP minigene ratio, 48 h
Outline: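 S3 HeLa cells stably expressing lamin A-EGFP splicing minigene plus DsRed2, 600 cells/well, 48 h compound exposure at 37C. Laser-scanning cytometry; analysed as GFP (500-530 nm)/RFP (575-640 nm) total intensity ratio; 0.5% DMSO vehicle.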

[1] = measured here: GFP splicing reporter channel
[2] = measured here: RFP viability control channel

SMILES	AC50 [1]	AC50 [2]
CCn1c(=O)cc(SCC(=O)NCCCN2CCC(C)CC2)c2ccccc21	10 µM [falling, partial curve]	–
O=C(CSc1nc2ccccc2s1)Nc1cc(S(=O)(=O)N2CCOCC2)ccc1Cl	35.5 µM [rising, single point]	14.1 µM [rising, partial curve, poor fit]
O=C(c1ccco1)N1CCN(c2nc(C3CC3)nc3sc4c(c23)CCCC4)CC1	35.5 µM [rising, single point]	35.5 µM [rising, single point]
CCCCCn1c(=O)[nH]c2cc(C(=O)NCCN(CC)CC)ccc2c1=O	0.178 µM [rising, full curve]	0.251 µM [rising, full curve, poor fit]
Cc1cccc(-c2noc(CN(C(=O)/C=C/c3ccccc3Cl)C(C)C)n2)c1	35.5 µM [rising, single point]	–
Cc1ccc(C(=O)N/C(=C/C=C\c2ccccc2)C(=O)NCc2ccco2)cc1	–	22.4 µM [rising, single point]
CC1=CC2=NC(=O)/C(=C\c3cc(C)n(-c4ccccc4F)c3C)C(=N)N2O1	–	25.1 µM [rising, single point]
O=S(=O)(CCc1ccccc1)N1CCOCC1	3.16 µM [falling, single point]	2.82 µM [falling, single point]
CCSc1nnc(NC(=O)C(C(F)(F)F)C(F)(F)F)s1	35.5 µM [falling, single point]	35.5 µM [falling, single point]
NCCNS(=O)(=O)c1cccc2cnccc12	2.82 µM [rising, partial curve, poor fit]	3.98 µM [rising, partial curve, poor fit]
Cc1ccc(C(=O)NC(NCc2ccccc2)C(Cl)(Cl)Cl)cc1 (stereo not given)	12.6 µM [rising, single point]	–
CCc1c(C)sc2c1CCN(Cc1ccccc1C#N)C2c1ccccc1 (stereo not given)	–	7.08 µM [rising, partial curve]
Cc1nn(C)c2c1c(-c1ccccc1)cc(=O)n2Cc1ccc(F)cc1	–	11.2 µM [rising, partial curve]
Cc1cc([N+](=O)[O-])ccc1NC(=O)C[n+]1ccc(N(C)C)cc1	–	0.00447 µM [falling, full curve, poor fit]
S=C(NCCc1ccccc1)NCc1cccs1	2.82 µM [rising, full curve, poor fit]	3.98 µM [rising, partial curve]
O=C(CSc1nc2cc(Cl)ccc2o1)NCCc1ccccc1	12.6 µM [rising, partial curve, poor fit]	17.8 µM [rising, single point]
N=c1oc2c3c4c(cc2cc1C(=O)Nc1ccccc1)CCCN4CCC3	5.01 µM [falling, full curve]	6.31 µM [falling, full curve]
COc1ccc(C(=O)NC(=S)Nc2cccc(S(=O)(=O)N3CCOCC3)c2)cc1	–	12.6 µM [rising, single point]
CCC(Oc1ccccc1)C(=O)NC1CCSC1=O (stereo not given)	0.178 µM [rising, full curve, poor fit]	–
CCOC(=O)c1cc(-c2ccccc2)n(CCC(=O)Nc2cc(OCC)ccc2OCC)c1C	0.0141 µM [rising, full curve]	–
COC(=O)c1ccccc1NC(=S)NC(NC(=O)COc1ccccc1)C(Cl)(Cl)Cl (stereo not given)	–	17.8 µM [falling, partial curve, poor fit]
CCN(CC)S(=O)(=O)c1ccc(N2CCCCC2)c(NC(=O)/C=C/c2cc(OC)c(OC)c(OC)c2)c1	–	3.55 µM [rising, full curve]
O=C(NCc1ccc2[nH]c3c(c2c1)CCCC3)c1ccc(S(=O)(=O)N2CCCC2)cc1	12.6 µM [rising, single point]	35.5 µM [rising, single point]
Cc1ccc(S(=O)(=O)N2CCN(c3nc4ccccc4nc3-n3nc(C)cc3C)CC2)cc1	25.1 µM [falling, single point]	–
Nc1nonc1C(=O)NCCNCc1ccccc1OCc1ccccc1F	–	15.8 µM [rising, single point]
Cc1ccc(S(=O)(=O)NC(C)C(c2cccs2)N2CCOCC2)cc1 (stereo not given)	–	5.62 µM [rising, single point]
COc1ccccc1C(=O)OCc1cc(=O)n2nc(C3CCCCC3)sc2n1	–	31.6 µM [rising, partial curve, poor fit]

SMILES	AC50 [1]	AC50 [2]
OC[C@H]1O[C@@H](n2cnc3c(Nc4ccccc4)ncnc32)[C@H](O)[C@@H]1O	–	0.0447 µM [rising, full curve, poor fit]
COc1cccc(C(=O)Oc2ccccc2/C=C\C(=O)c2cc3ccccc3o2)c1	35.5 µM [falling, single point]	35.5 µM [falling, single point]
CN(Cc1ccccc1NCC(=O)Nc1ccccc1C#N)C1CCCCC1	0.282 µM [falling, full curve, poor fit]	–
CCc1ccc(CNCc2ccc(OCC(O)CN(C)Cc3ccccc3)cc2)nc1 (stereo not given)	2.24 µM [falling, partial curve]	0.447 µM [falling, full curve]
O=c1c2ccccc2nc2n1C(CSCc1ccc(Cl)cc1Cl)CS2 (stereo not given)	2.82 µM [rising, full curve, poor fit]	3.55 µM [rising, single point]
OCCNCCNCc1ccccc1OCc1ccccc1	0.00447 µM [falling, full curve, poor fit]	22.4 µM [falling, partial curve, poor fit]
CC(C)CC(=O)Nc1ccc(C(=O)COc2ccc(-c3nnco3)cc2)cc1	7.94 µM [rising, partial curve, poor fit]	–
Brc1ccc(CSc2nnc(-c3cccnc3)o2)cc1	0.0158 µM [falling, full curve, poor fit]	0.0282 µM [falling, full curve, poor fit]
C/C(=C\c1ccc(C(=O)O)cc1)c1ccc2c(c1)C(C)(C)CCC2(C)C	25.1 µM [falling, partial curve, poor fit]	35.5 µM [falling, partial curve, poor fit]
Cc1ccc(NC(=O)c2cc(S(=O)(=O)NCCC3=CCCCC3)ccc2F)cc1C	7.08 µM [falling, full curve, poor fit]	–
O=C(CSc1ccc(Cl)cc1)N1CCN(c2ccc([N+](=O)[O-])cc2Cl)CC1	–	12.6 µM [rising, partial curve]
Clc1ccccc1-c1ccc(CN2CCN(c3ccccc3)CC2)o1	–	35.5 µM [rising, single point]
O=C(NCc1ccccc1F)C1CCCN(C(=O)NC2CCCCC2)C1 (stereo not given)	12.6 µM [rising, single point]	31.6 µM [rising, single point]
COC(=O)c1cccc(NC(=S)NCCC2=CCCCC2)c1	–	10 µM [falling, partial curve, poor fit]
C=CCn1c(SCC(=O)Nc2sccc2C(N)=O)nc2ccccc2c1=O	10 µM [rising, partial curve]	11.2 µM [rising, partial curve]
COc1ccc(Nc2sc(C(=O)c3ccccc3)c(N)c2C(=O)Nc2cc(C)ccc2C)c(OC)c1	–	11.2 µM [rising, partial curve, poor fit]
CCOC(=O)c1sc2nc3c(SCCC(=O)O)cc(C(=O)c4cc(OC)ccc4O)cn3c(=O)c2c1C	–	2.82 µM [rising, single point]
Nc1ccc(CCNc2ncnc3c2ncn3C2OC(CO)C(O)C2O)cc1 (stereo not given)	–	6.31 µM [falling, partial curve, poor fit]
CCOc1cc(/C=N/NC(=O)c2nn(C)cc2Br)ccc1OCc1ccccc1	3.16 µM [rising, single point]	–
COc1ccccc1N1CCN(C(=O)NC23CC4CC(CC(C4)C2)C3)CC1	–	3.55 µM [falling, single point]
Cc1nn(Cc2ccc(Cl)cc2)c(C)c1NC(=O)c1ccc([N+](=O)[O-])cc1	–	17.8 µM [rising, single point]
Cc1nn2c(=O)cc(COC(=O)c3ccc(NC(=O)COc4ccc(Cl)cc4)cc3)nc2s1	2.82 µM [falling, single point]	–
C/C(=N\NC(=S)Nc1ccc(C(C)C)cc1)c1ccc2c(c1)OCO2	8.91 µM [rising, partial curve]	3.16 µM [rising, full curve, poor fit]
O=C(CSCc1ccc(Cl)cc1)Nc1ccc(S(=O)(=O)N2CCCCCC2)cc1	–	17.8 µM [rising, partial curve]
CCOC(=O)CSC1=C(C#N)C(c2ccc(C)s2)CC(=O)N1 (stereo not given)	–	15.8 µM [rising, partial curve, poor fit]
COc1cccc(C2Cc3ccccc3C(=O)O2)c1 (stereo not given)	11.2 µM [rising, partial curve]	7.94 µM [rising, partial curve]
COC(=O)[C@H](Cc1ccccc1)NC(=O)O[C@H]1C(=O)c2ccc(OC)cc2O[C@@H]1c1ccc2c(c1)OCO2	3.98 µM [rising, single point]	5.62 µM [rising, single point]

Single values from the list:
In AC50 [2], `Cc1nn(Cc2ccc(Cl)cc2)c(C)c1NC(=O)c1ccc([N+](=O)[O-])cc1` has the entry 17.8 µM [rising, single point]
In AC50 [2], `Clc1ccccc1-c1ccc(CN2CCN(c3ccccc3)CC2)o1` has the entry 35.5 µM [rising, single point]
